According to PubChem BioAssay AID2551 (National Center for Advancing Translational Sciences (NCATS), 2010):
In all, about 310,000 compounds went through this assay and about 17,000 (5.5%) were called active. Inconclusive means that the source gave no clear call. Such entries were picked first, then a sample of the others. Calls come from the whole dose curve; as a rule, active = well fitted inhibition curve with a large enough effect; inconclusive = small, poorly fitted or top-dose-only effect, or effect the other way; inactive = no such curve, though single readings can be large or run the other way. A potency beside an inconclusive call is a rough fit, not a confirmed value.

Sequences of proteins named here, by UniProt entry; tags and fusion partners are left off. A change or cut given only in a name is not applied to a line headed by its entry.
UniProt P51450: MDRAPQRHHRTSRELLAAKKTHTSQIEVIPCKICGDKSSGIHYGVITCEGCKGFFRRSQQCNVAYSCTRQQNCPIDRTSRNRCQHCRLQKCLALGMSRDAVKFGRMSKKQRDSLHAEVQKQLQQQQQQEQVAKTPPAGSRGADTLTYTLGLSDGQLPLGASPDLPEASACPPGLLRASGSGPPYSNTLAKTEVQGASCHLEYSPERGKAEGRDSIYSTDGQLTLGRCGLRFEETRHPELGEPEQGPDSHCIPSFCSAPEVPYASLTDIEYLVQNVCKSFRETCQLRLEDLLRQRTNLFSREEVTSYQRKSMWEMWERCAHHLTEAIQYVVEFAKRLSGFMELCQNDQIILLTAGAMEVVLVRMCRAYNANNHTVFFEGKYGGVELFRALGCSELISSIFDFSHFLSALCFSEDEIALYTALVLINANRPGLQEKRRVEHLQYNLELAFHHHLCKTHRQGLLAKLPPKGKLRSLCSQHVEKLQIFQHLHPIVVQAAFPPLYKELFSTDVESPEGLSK

molecular target: Nuclear receptor ROR-gamma (Mus musculus) (UniProt P51450); assay: qHTS for inhibitors of ROR gamma transcriptional activity; conditions: Drosophila S2 Gal4-RORgamma UAS-luciferase reporter, 20 h; activity change, negative = inhibition: at 53.6 µM (top of the series); note: nearly all actives have a fitted effect of over 60% in size
Summary of the method: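 A Gal4/UAS one-hybrid system in insect cells: metallothionein-promoter Gal4–ROR gamma fusion plus Photinus luciferase reporter. Copper sulfate 700 uM final, 20 hr ambient incubation, luminescent detection after 10 min with reagent.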
% is set by controls: 0 for no effect and ±100 for the full control effect; potency is the fitted concentration of half-maximal effect.

SMILES | Potency | activity change, negative = inhibition
CCOc1ccc(C(=O)N/N=C(/C)C2C(=O)c3ccccc3C2=O)cc1 | active: 1.12 µM | –
O=C(NNS(=O)(=O)c1ccc(F)cc1)c1ccccc1O | inconclusive: 35.5 µM [inhibitor, single point] | –
O=C(CSCc1ccc(Cl)cc1)NN=C1CCCCCC1 | inconclusive: 35.5 µM [inhibitor, single point] | –
COc1cc(C2C3=C(CCCC3=O)OC3=C2C(=O)CCC3)ccc1OCC(=O)Nc1ccccc1 | – | inactive: 3.03%
O=C(O)Cc1ccc(Oc2ncc(C(F)(F)F)cc2Cl)cc1 | – | inactive: 18.5%
CCOC(=O)C1=C(CN2CCCCCC2)NC(=O)NC1c1ccc2c(c1)OCO2 (stereo not given) | – | inactive: 15.5%
COc1ccc2nc(SCC(=O)Nc3ccc(S(=O)(=O)N4CCCC4)cc3)c(C#N)cc2c1 | – | inactive: -6.65%
CC(C)c1ccc(NC(=O)CSc2nc3ccccc3nc2N2CCCC2)cc1 | – | inactive: -23.2%
CCOc1ccccc1C1CC(c2ccc(Br)cc2)Nc2nc(N)nn21 (stereo not given) | inconclusive: 35.5 µM [inhibitor, single point] | –
CCCNc1c(NS(=O)(=O)c2c(F)c(F)c(F)c(F)c2F)c(=O)oc2ccccc12 | – | inactive: -27%
C/C=C/C(=O)Nc1ccc(N2CCN(c3ccc(C(F)(F)F)cn3)CC2)nc1 | inconclusive: 35.5 µM [activator, single point] | –
CCC1CCC2(CC1)NNC(=S)NN2 | inconclusive: 12.6 µM [inhibitor, partial curve, poor fit] | –
COc1ccc(CCNC(=O)Cn2nnc(-c3ccc(N4CCOCC4)cc3)n2)cc1OC | inconclusive: 35.5 µM [inhibitor, single point] | –
O=C(CCN1CCc2ccccc2C(c2ccccc2)C1)c1ccc2c(c1)OCCO2 (stereo not given) | active: 4.47 µM | –
COC(=O)c1ccc(Nc2cc(C)nc3ccc(C)cc23)cc1 | inconclusive: 15.8 µM [inhibitor, single point] | –
COc1ccc2ccccc2c1C1CC(=O)N2CN(C)CSC2=C1C#N (stereo not given) | inconclusive: 22.4 µM [inhibitor, single point] | –
S=c1[nH]nc(-c2cccnc2)n1/N=C/c1ccccc1 | inconclusive: 35.5 µM [inhibitor, single point] | –
S=c1[nH]nc(C2CCCCC2)n1/N=C/C=C/c1ccccc1 | active: 0.891 µM | –
CC(C)(C)c1ccc(C(=O)NC(=S)N2CCCCCC2)cc1 | active: 0.282 µM | –
O=C(CSc1ncnc2nc[nH]c12)c1ccc2ccccc2c1 | inconclusive: 11.2 µM [activator, partial curve] | –
COc1ccc(NC(=S)NNC(=O)Cn2nc(C(F)F)cc2C(F)F)cc1 | inconclusive: 0.891 µM [inhibitor, full curve, poor fit] | –
Clc1ccc(CSc2nnc([C@@H]3CCCN3)o2)cc1Cl | inconclusive: 3.98 µM [activator, partial curve, poor fit] | –
CCOc1ccc(NC(C)c2cc(Cl)ccc2O)cc1 (stereo not given) | – | inactive: -9.47%
CCCCn1c(=O)[nH]c(=O)c2c1nc(-c1cc(Cl)c(OC)c(OC)c1)n2C | inconclusive: 5.01 µM [activator, full curve] | –
COC(=O)c1sccc1NC(=S)N1CCCCC1C (stereo not given) | inconclusive: 14.1 µM [inhibitor, single point] | –

SMILES | Potency | activity change, negative = inhibition
O=C(/C=C/c1ccco1)NC(=S)Nc1cc(C(F)(F)F)ccc1N1CCOCC1 | active: 6.31 µM | –
C=CCN(CC=C)C(=O)C1CCC(C(=O)N(CC=C)CC=C)CC1 (stereo not given) | inconclusive: 2 µM [inhibitor, single point] | –
COc1ccc(NC(=O)Cc2c(SC)c3ccccc3n2Cc2ccccc2)cc1 | inconclusive: 35.5 µM [inhibitor, single point] | –
Cc1cc(C)nc(SCc2ccc(C(=O)N/N=C/c3ccco3)cc2)n1 | inconclusive: 22.4 µM [inhibitor, single point] | –
COc1ccc(C(=O)/C=C/Nc2ccc([N+](=O)[O-])cc2C)cc1OC | – | inactive: -4.38%
O=C1NC(Cc2c[nH]c3ccccc23)C(=O)N1Cc1ccc(CN2C(=O)NC(Cc3c[nH]c4ccccc34)C2=O)cc1 (stereo not given) | – | inactive: 0.391%
COc1ccccc1OCc1ccc(C(=O)N2CCN(C(=O)c3ccco3)CC2)cc1 | – | inactive: 6.52%
O=C(NCc1ccccc1)c1cccc(S(=O)(=O)N2CCCCC2)c1 | inconclusive: 14.1 µM [activator, single point] | –
O=C(NCC1CCCO1)c1ccc(S(=O)(=O)N2CCC(c3nc4ccc(Cl)cc4[nH]3)CC2)cc1 (stereo not given) | inconclusive: 31.6 µM [activator, single point] | –
O=c1[nH]c(N/N=C/c2ccc(O)cc2)nc2ccccc12 | inconclusive: 11.2 µM [inhibitor, partial curve] | –
COc1ccc(Br)cc1C1CC(=O)N2CN(C)CSC2=C1C#N (stereo not given) | active: 15.8 µM | –
NS(=O)(=O)c1cccc(NC(=O)CSc2nn(-c3ccccc3)c(=S)s2)c1 | inconclusive: 20 µM [activator, single point] | –
CC(=O)c1c(C(=O)O)c2ccccc2[nH]c1=O | – | inactive: -0.907%
CCOC(=O)c1oc2ccccc2c1CSc1nnnn1-c1ccc(C)cc1 | inconclusive: 31.6 µM [activator, single point] | –
Cc1ccc2oc(=O)c3cc(C(=O)NCc4ccco4)sc3c2c1 | inconclusive: 2.82 µM [inhibitor, partial curve] | –
CCN(CC)c1ccc(/C=N/NC(=O)c2nnn(-c3nonc3N)c2C(C)C)c(O)c1 | active: 3.55 µM | –
COc1ccc(Cc2nnc(NC(=O)c3ccc(OC)cc3OC)s2)cc1 | – | inactive: 19.7%
CCOC(=O)c1c(NC(=S)Nc2ccccc2)sc2c1CC(C)(C)SC2 | active: 2.82 µM | –
Cc1ccc2c(c1)nnn2C1CCN(C(=O)NC23CC4CC(CC(C4)C2)C3)CC1 | inconclusive: 14.1 µM [activator, single point] | –
Cc1ccc(CS(=O)(=O)CCC(=O)NCc2ccccc2Cl)cc1 | inconclusive: 35.5 µM [activator, single point] | –
COc1ccnc(Oc2ccccc2)c1C(=O)N/C=N/OCc1ccccc1F | – | inactive: 17.3%
CCOc1ccc(-c2cc(N)n(S(=O)(=O)c3ccc(OC)c(OC)c3)n2)cc1 | inconclusive: 0.251 µM [activator, partial curve, poor fit] | –
COc1cccc(-c2nccc(NCc3ccccc3OC)n2)c1 | inconclusive: 11.2 µM [activator, partial curve] | –
O=C1c2[nH]nc(-c3ccccc3O)c2C(c2cccc(Cl)c2)N1Cc1ccco1 (stereo not given) | inconclusive: 35.5 µM [inhibitor, single point] | –
CCOC(=O)C(C)Sc1nc(-c2ccccn2)ncc1OC (stereo not given) | active: 7.08 µM | –

SMILES | Potency | activity change, negative = inhibition
CC(C)CCNC1=CC(=O)CC(c2ccccc2)C1 (stereo not given) | inconclusive: 22.4 µM [activator, partial curve, poor fit] | –
CCCCCn1c(=O)c(C(=O)OCC)c(Cl)c2ccccc21 | – | inactive: 4.9%
O=C(NCCc1nc2ccccc2[nH]1)/C(=C/c1ccco1)NC(=O)c1ccccc1Br | inconclusive: 22.4 µM [activator, single point] | –
CSc1ccccc1C(=O)N1CCOCC1 | – | inactive: -36.8%
Cc1cc(C(=O)Nc2ccc3c(c2)OCO3)cs1 | inconclusive: 4.47 µM [activator, full curve] | –
Cc1cccc(NC(=S)N(CCCN2CCOCC2)C(C)c2cc3ccccc3o2)c1 (stereo not given) | active: 12.6 µM | –
COc1ccc2cc(CCNC(=O)c3cccs3)c(=O)[nH]c2c1 | – | inactive: 12.1%
CCOC(=O)C1CCN(C(=O)c2cc3c(-c4ccc(OC)c(OC)c4)nn(C)c3s2)CC1 | – | inactive: 1.39%
O=C(NC1=NCCS1)c1ccccc1Cl | – | inactive: -0.979%
CCC(=O)Nc1sc2c(c1C#N)CCCCC2 | inconclusive: 31.6 µM [activator, single point] | –
O=c1c2c(nc3c(-c4ccc(Cl)cc4)c[nH]n13)CCCC2 | active: 2.24 µM | –
Cc1nonc1NC(=O)CSc1nnc(N)s1 | inconclusive: 2.82 µM [inhibitor, partial curve, poor fit] | –
Cc1cc(O)c(NC(=O)c2cccc([N+](=O)[O-])c2)cc1C | inconclusive: 2.82 µM [activator, partial curve] | –
COc1ccc(C2C=C(C34CC5CC(CC(C5)C3)C4)NC(=S)N2)cc1OC (stereo not given) | active: 1.26 µM | –
FC(F)(F)c1ccc(C2[C@H]3CN(Cc4cccnc4)[C@H](c4ccccc4)C34CC2(c2ccccc2)C4)cc1 (stereo not given in full) | inconclusive: 8.91 µM [inhibitor, partial curve] | –
COc1ccc(OCC(=O)NC(=S)Nc2ccc3c4c(cccc24)CC3)cc1 | inconclusive: 2.82 µM [inhibitor, single point] | –
CCOC(=O)c1ccccc1NC(=S)N1CCN(C2CCCCC2)CC1 | inconclusive: 10 µM [inhibitor, partial curve, poor fit] | –
COc1cccc(/C=N/N2C(=O)CSC2=S)c1O | active: 3.98 µM | –
CCOC(=O)c1c(-c2ccc(C)cc2C)csc1NC(=O)CSc1nnnn1C | inconclusive: 35.5 µM [inhibitor, single point] | –
CCc1nc(CNC(=O)C2CCC(=O)N(Cc3ccccc3F)C2)no1 (stereo not given) | – | inactive: -13.8%
CC(C)Cn1c(-c2csc(C(C)C)c2)n[nH]c1=S | active: 2 µM | –
Fc1cccc(NC(=S)NCCN2CCOCC2)c1 | inconclusive: 35.5 µM [inhibitor, single point] | –
C/C(=N/Nc1nc(C)cc(-c2ccccc2)n1)c1ccco1 | active: 5.01 µM | –
COc1ccc(S(=O)(=O)NCCSCc2cccc(C)c2)cc1Br | – | inactive: 7.14%
O=C(CC1COc2ccccc2O1)NC1CCCCC1 (stereo not given) | – | inactive: 29.7%

4 of the compounds above, field by field:
Cc1ccc(CS(=O)(=O)CCC(=O)NCc2ccccc2Cl)cc1
  Potency: inconclusive: 35.5 µM [activator, single point]
CCCCCn1c(=O)c(C(=O)OCC)c(Cl)c2ccccc21
  activity change, negative = inhibition: inactive: 4.9%
CCOC(=O)C1CCN(C(=O)c2cc3c(-c4ccc(OC)c(OC)c4)nn(C)c3s2)CC1
  activity change, negative = inhibition: inactive: 1.39%
O=C(NC1=NCCS1)c1ccccc1Cl
  activity change, negative = inhibition: inactive: -0.979%
